Reference: paper PMC8672774 (Chemical Science, 2021)
Strings that start with PEPTIDE1 are HELM notation: dots part the residues, brackets hold end groups and non-standard residues. Numbered stars: 1 amine (or outer) side, 2 acyl side, 3 side chain; on linkers, the order of the positions; unused ones are H or OH. Bridge positions count the residues as written; N and C are the ends. Square brackets hold non-standard residues; d marks the D form. CH2 = C([*:1])[*:2]

Assay: general procedure: Fmoc solid-phase peptide synthesis; Rink Amide resin LL MBHA (NovaBioChem, 0.33 mmol/g); Knorr Amide MBHA Resin for tracer; DIC/Oxyma Pure; HATU with NMM for tracer
Conditions: cyclisation step, UPLC, 220 nm

With “5-FAM-labeled analog of Pro13Lys MP-1687” the “final HPLC purity” value was 95.3%.

Same assay, conditions: whole synthesis, UPLC, UV 220 nm (stated for tracer)

First: Ac-RR[dC]PAYISYDPVCRR-NH2 (linker 3-13 via CH2)
Second: Ac-K(N3)-RRRR-cyclo(C(methylene)PLYISYDPVC)-RRRR-NH2
The “final purity (method not given)” value of the first is higher: 90.3% for the first, 90.2% for the second.

Going from “Ac-rrrr-cyclo(c(methylene)plyisydpvc)-rrrr-NH2” to “PEPTIDE1{[ac].[XKaz].[dR].[dR].[dR].[dR].[XCysMD].P.L.Y.I.[XaMeS].Y.D.P.V.C.[dR].[dR].[dR].[dR].[am]}$PEPTIDE1,PEPTIDE1,7:R3-17:R3$$$V2.0”, the “final purity (method not given)” value rises from 95.3% to 98.0%.

First: Ac-RR-cyclo(c(methylene)ALYISYDPVC)-RR-NH2
Second: Ac-K(N3)-RRRR-cyclo(c(methylene)PLYISYDPVC)-RRRR-NH2
The “final purity (method not given)” value of the first is higher: 95.7% for the first, 95.3% for the second.

First: Ac-RR-cyclo(c(methylene)PLYISYDAVC)-RR-NH2
Second: Ac-K(N3)-rrrr-cyclo(c(methylene)PLYISYDPVC)-rrrr-NH2
The “final purity (method not given)” value of the first is lower: 94.8% for the first, 95.1% for the second.

First: Ac-RR-cyclo(c(methylene)PLYASYDPVC)-RR-NH2
Second: PEPTIDE1{[ac].[XKaz].R.R.[XCysMD].P.L.Y.I.S.Y.D.P.V.C.R.R.[am]}$PEPTIDE1,PEPTIDE1,5:R3-15:R3$$$V2.0
The “final purity (method not given)” value of the first is lower: 94.2% for the first, 96.9% for the second.

First: Ac-RR-cyclo(c(methylene)PLYIAYDPVC)-RR-NH2
Second: Ac-K(N3)-RR-cyclo(c(methylene)PLYISYDPV-hC)-RR-NH2
The “final purity (method not given)” value of the first is higher: 96.0% for the first, 81.4% for the second.

First: Ac-RR-cyclo(c(methylene)PLYISYAPVC)-RR-NH2
Second: Ac-RR-cyclo(c(methylene)PLYISADPVC)-RR-NH2
The “final purity (method not given)” value of the first is higher: 96.5% for the first, 95.9% for the second.

Going from “Ac-RR-cyclo(c(methylene)PLAISYDPVC)-RR-NH2” to “Ac-K(N3)-RRRR-cyclo(dPLYISYDPV-Dap)-RRRR-NH2”, the “final purity (method not given)” value falls from 95.0% to 93.0%.

First: Ac-RR-cyclo(c(methylene)PLYISYDPAC)-RR-NH2
Second: PEPTIDE1{[ac].[XKaz].R.R.R.R.[XAspL].P.L.Y.I.S.Y.D.P.V.[XDap].R.R.R.R.[am]}$PEPTIDE1,PEPTIDE1,7:R3-17:R3$$$V2.0
The “final purity (method not given)” value of the first is higher: 96.9% for the first, 92.3% for the second.
